Measured values from patent US20130189775A1, “MODULATION OF THE […] RECEPTOR mTOR TO INHIBIT STEM CELL DIFFERENTIATION INTO NEURONS” (priority 2011, published 2013).
“Also recorded” adds a separate entry of the source. At least one compound was matched to its structure with a doubt left.

Legend:
Format in all cases: cell-based, human
ReN cells [1] = assay: ReN cell neural progenitor differentiation, phase contrast microscopy
Method: To evaluate the role of kinases in the differentiation of neural stem cells, we added kinase inhibitors from the BIOMOL kinase inhibitor library to the culture during the differentiation process. Kinase inhibitors were replaced on alternate days during media change. Cultures were grown for 6-7 days. We used phase contrast imaging and immunocytochemistry to understand the difference in the morphological differentiation.
General procedure for neuronal stem cell culture on laminin surface: • 96 well CellBind™ treated plates were washed with 70% ethanol and kept ON in the hood • Next day morning, plates were washed twice with 1×PBS • Laminin (50 μl, 20 μg/ml) was added to the wells and incubated 37° C. incubator for 5 hrs. • Wells were washed with 1×PBS after incubation. • Cells were seeded at 20,000 cells/well • For undifferentiated cells, the cultures were grown for 9 days. Media was changed everyday with growth factor supplementation • For differentiated cells, the growth factor deprived media was added after next day after seeding and cells were grown further for 6 days with media changes every other day. • Rapamycin and other inhibitors were added to the cells when the media was changed to growth factor independent media. Media was maintained throughout the study and changed on alternate days. ReNcell NSC Maintenance Medium contains DMEM/F12 w/o HEPES, w/L-Glutamine, human serum albumin, human transferrin, putrescine dihydrochloride, human recombinant insulin, L-thyroxine, Tri-iodo-thyronine, progesterone, sodium selenite, heparin, corticosterone. […] The growth factors used were EGF (Epidermal growth factor) and bFGF (Basic fibroblast growth factor).
Kinase inhibitors (1 μM) was added to the cells next day after seeding and replenished during media changes on alternate days. Phase contrast microscopy was done after 6 days as described below. […]
After the experiment, the cells were fixed with 4% paraformaldehyde and washed thrice with 1×PBS. Cells were assessed using a Ziess Axiovert 200M inverted Brightfield/fluorescence microscope.

ReN cells [2] = assay: Epic label-free RWG biosensor receptor assay on ReN cells; settings: rapamycin 5 μM for 6 days; profiles with receptor agonists compared with undifferentiated cells (FIG. 6)
Method: The label-free biosensor assays for various receptors was done in the presence of various concentrations of a typical agonist using Corning Epic® system. Assay on undifferentiated cells was carried out simultaneously. […] Undifferentiated receptor profiles were similar to rapamycin treated cells indicating the blockage of differentiation by rapamycin.
ReN Cells were treated with or without rapamycin (5 μM) for 6 days. Cells were washed with HBSS and loaded onto Epic instrument for a single step assay with various receptor agonists. Undifferentiated cells grown for 3-4 days (till confluency) and run of Epic instrument as described above.

ReN cells [3] = assay: β-tubulin III immunostaining of differentiating ReN cells; settings: differentiated by removal of growth factors, various concentrations of rapamycin (FIG. 2)

Compound | block of differentiation process, BIOMOL kinase inhibitor library screen (ReN cells [1]; kinase inhibitors 1 μM, replaced on alternate days, 6-7 days) | inhibition of morphological changes (differentiation) of ReN cells (ReN cells [1]; various concentrations of rapamycin, alternate days for 6 days, absence of growth factors, phase contrast (FIG. 1)) | blockage of differentiation evaluated by RWG biosensor receptor profiles (ReN cells [2]) | β-tubulin III immunostaining in ReN cells (ReN cells [3]) | block of neural progenitor differentiation by PI3-K / Akt inhibitors (ReN cells [1]; ReN cells differentiated in presence of inhibitor for 6-7 days (FIG. 3, FIG. 4))
CO[C@H]1C[C@@H]2CC[C@@H](C)[C@@](O)(O2)C(=O)C(=O)N2CCCC[C@H]2C(=O)O[C@H]([C@H](C)C[C@@H]2CC[C@@H](O)[C@H](OC)C2)CC(=O)[C@H](C)/C=C(\C)[C@@H](O)[C@@H](OC)C(=O)[C@H](C)C[C@H](C)/C=C/C=C/C=C/1C [rapamycin] | blocked the differentiation process | poor differentiation of neuronal progenitor cells; also recorded: dose dependent inhibition of morphological changes | maintained the undifferentiated profile; also recorded: blocked the differentiation of cells | poor differentiation of neuronal progenitor cells; also recorded: dose dependent decrease in β-tubulin III immunostaining | –
COC[C@H]1OC(=O)c2coc3c2[C@@]1(C)C1=C(C3=O)[C@@H]2CCC(=O)[C@@]2(C)C[C@H]1OC(C)=O [Wortmannin, wortmannin] | – | – | – | – | blocked the neural progenitor differentiation
